Test results as given in article PMC4997316, “A ruthenium polypyridyl intercalator stalls DNA replication forks, radiosensitizes human cancer cells and is enhanced by Chk1 inhibition” (Scientific Reports, 2016).

Test system: HeLa cells
Assay: subcellular Ru distribution by ICP-MS
Format: cell-based, human
Details: 40 μM, 24 h; for Ru in cytosol/cytoskeletal component: share of total Ru content

Compound | nuclear uptake, share of total Ru content | Ru in cytosol/cytoskeletal component [%]
[Ru+2].c1ccc(-c2nc3c4cccnc4c4ncccc4c3[nH]2)cc1.c1ccc2nc3c4cccnc4c4ncccc4c3nc2c1.c1ccc2nc3c4cccnc4c4ncccc4c3nc2c1 [Complex 1, [Ru(dppz)2(PIP)]^2+] | ~ 20% | 58
Oc1ccc(-c2nc3c4cccnc4c4ncccc4c3[nH]2)cc1.[Ru+2].c1ccc2nc3c4cccnc4c4ncccc4c3nc2c1.c1ccc2nc3c4cccnc4c4ncccc4c3nc2c1 [Complex 2, [Ru(dppz)2(p-HPIP)]^2+] | ~ 20% | 52
